Measurements published in US10172832B2, “Amide derivatives of N-urea substituted amino acids as formyl peptide receptor like-1 (FPRL-1) receptor modulators” (Allergan, Inc., priority 2011, dated 2019).
Structures were worked out from names or drawings and are uncertain.

By UniProt entry, the sequences of proteins in these tests, tags left out.
UniProt P25090, whole entry: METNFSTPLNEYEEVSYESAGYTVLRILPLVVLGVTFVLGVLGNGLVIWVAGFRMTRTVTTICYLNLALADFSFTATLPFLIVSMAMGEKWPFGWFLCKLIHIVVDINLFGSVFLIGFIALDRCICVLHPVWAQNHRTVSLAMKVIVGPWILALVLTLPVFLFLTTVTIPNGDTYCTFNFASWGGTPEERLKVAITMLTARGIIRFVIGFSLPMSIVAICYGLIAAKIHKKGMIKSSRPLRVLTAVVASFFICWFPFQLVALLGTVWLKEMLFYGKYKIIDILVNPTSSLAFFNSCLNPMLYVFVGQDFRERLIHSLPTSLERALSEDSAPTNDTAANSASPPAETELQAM

Target: FPRL-1 (Homo sapiens, UniProt P25090)
Assay: compound-induced calcium activity on FLIPR Tetra in CHO-Gα16 cells stably expressing FPRL1
Format: cell-based
Conditions: relative efficacy

Question: With CC(C)C[C@H](NC(=O)Nc1ccc(Br)cc1F)C(=O)NCC(N)=O as the compound, how does the “FPRL-1 Ga16-CHO (Rel. eff.)” value read?
Answer: (0.95)
